Assay results published in patent publication US20060034848A1, “Methods and compositions for treating Alzheimer's disease” (priority 2003, published 2006).
Results are given in words; binding and its absence hold for the method and conditions named. For part of these data: In cells and extracts the contact can be indirect. Some binding calls cover weakened binding; strength is not graded here. Values belong to the substance of their own block, whether it stands above or below them.

By UniProt entry, the sequences of proteins in these tests, tags left out. Where a name states a change or a piece, a line headed by the entry shows the natural chain unless it says otherwise. Residues count along the entry.
endogenous LRP (light chain, approx. 85 kDa) of human brain tissue (Q07954, residues 3944-4544): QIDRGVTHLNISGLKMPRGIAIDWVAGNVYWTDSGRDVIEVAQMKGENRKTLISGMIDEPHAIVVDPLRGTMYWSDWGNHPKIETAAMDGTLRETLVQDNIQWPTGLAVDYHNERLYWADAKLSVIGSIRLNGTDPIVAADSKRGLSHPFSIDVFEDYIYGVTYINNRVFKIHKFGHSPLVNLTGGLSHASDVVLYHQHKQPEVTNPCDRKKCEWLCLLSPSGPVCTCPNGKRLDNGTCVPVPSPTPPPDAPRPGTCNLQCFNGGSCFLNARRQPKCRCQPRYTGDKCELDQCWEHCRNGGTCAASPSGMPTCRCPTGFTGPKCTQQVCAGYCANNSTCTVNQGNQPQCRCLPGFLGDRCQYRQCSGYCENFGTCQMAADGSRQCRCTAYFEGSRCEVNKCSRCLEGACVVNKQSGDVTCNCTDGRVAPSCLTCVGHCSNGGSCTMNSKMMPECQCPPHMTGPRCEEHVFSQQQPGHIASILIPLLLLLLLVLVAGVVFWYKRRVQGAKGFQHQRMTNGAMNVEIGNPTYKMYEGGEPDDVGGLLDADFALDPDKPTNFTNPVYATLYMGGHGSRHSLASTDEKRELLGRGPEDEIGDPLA
UniProt Q91ZX7, residues 20-4545: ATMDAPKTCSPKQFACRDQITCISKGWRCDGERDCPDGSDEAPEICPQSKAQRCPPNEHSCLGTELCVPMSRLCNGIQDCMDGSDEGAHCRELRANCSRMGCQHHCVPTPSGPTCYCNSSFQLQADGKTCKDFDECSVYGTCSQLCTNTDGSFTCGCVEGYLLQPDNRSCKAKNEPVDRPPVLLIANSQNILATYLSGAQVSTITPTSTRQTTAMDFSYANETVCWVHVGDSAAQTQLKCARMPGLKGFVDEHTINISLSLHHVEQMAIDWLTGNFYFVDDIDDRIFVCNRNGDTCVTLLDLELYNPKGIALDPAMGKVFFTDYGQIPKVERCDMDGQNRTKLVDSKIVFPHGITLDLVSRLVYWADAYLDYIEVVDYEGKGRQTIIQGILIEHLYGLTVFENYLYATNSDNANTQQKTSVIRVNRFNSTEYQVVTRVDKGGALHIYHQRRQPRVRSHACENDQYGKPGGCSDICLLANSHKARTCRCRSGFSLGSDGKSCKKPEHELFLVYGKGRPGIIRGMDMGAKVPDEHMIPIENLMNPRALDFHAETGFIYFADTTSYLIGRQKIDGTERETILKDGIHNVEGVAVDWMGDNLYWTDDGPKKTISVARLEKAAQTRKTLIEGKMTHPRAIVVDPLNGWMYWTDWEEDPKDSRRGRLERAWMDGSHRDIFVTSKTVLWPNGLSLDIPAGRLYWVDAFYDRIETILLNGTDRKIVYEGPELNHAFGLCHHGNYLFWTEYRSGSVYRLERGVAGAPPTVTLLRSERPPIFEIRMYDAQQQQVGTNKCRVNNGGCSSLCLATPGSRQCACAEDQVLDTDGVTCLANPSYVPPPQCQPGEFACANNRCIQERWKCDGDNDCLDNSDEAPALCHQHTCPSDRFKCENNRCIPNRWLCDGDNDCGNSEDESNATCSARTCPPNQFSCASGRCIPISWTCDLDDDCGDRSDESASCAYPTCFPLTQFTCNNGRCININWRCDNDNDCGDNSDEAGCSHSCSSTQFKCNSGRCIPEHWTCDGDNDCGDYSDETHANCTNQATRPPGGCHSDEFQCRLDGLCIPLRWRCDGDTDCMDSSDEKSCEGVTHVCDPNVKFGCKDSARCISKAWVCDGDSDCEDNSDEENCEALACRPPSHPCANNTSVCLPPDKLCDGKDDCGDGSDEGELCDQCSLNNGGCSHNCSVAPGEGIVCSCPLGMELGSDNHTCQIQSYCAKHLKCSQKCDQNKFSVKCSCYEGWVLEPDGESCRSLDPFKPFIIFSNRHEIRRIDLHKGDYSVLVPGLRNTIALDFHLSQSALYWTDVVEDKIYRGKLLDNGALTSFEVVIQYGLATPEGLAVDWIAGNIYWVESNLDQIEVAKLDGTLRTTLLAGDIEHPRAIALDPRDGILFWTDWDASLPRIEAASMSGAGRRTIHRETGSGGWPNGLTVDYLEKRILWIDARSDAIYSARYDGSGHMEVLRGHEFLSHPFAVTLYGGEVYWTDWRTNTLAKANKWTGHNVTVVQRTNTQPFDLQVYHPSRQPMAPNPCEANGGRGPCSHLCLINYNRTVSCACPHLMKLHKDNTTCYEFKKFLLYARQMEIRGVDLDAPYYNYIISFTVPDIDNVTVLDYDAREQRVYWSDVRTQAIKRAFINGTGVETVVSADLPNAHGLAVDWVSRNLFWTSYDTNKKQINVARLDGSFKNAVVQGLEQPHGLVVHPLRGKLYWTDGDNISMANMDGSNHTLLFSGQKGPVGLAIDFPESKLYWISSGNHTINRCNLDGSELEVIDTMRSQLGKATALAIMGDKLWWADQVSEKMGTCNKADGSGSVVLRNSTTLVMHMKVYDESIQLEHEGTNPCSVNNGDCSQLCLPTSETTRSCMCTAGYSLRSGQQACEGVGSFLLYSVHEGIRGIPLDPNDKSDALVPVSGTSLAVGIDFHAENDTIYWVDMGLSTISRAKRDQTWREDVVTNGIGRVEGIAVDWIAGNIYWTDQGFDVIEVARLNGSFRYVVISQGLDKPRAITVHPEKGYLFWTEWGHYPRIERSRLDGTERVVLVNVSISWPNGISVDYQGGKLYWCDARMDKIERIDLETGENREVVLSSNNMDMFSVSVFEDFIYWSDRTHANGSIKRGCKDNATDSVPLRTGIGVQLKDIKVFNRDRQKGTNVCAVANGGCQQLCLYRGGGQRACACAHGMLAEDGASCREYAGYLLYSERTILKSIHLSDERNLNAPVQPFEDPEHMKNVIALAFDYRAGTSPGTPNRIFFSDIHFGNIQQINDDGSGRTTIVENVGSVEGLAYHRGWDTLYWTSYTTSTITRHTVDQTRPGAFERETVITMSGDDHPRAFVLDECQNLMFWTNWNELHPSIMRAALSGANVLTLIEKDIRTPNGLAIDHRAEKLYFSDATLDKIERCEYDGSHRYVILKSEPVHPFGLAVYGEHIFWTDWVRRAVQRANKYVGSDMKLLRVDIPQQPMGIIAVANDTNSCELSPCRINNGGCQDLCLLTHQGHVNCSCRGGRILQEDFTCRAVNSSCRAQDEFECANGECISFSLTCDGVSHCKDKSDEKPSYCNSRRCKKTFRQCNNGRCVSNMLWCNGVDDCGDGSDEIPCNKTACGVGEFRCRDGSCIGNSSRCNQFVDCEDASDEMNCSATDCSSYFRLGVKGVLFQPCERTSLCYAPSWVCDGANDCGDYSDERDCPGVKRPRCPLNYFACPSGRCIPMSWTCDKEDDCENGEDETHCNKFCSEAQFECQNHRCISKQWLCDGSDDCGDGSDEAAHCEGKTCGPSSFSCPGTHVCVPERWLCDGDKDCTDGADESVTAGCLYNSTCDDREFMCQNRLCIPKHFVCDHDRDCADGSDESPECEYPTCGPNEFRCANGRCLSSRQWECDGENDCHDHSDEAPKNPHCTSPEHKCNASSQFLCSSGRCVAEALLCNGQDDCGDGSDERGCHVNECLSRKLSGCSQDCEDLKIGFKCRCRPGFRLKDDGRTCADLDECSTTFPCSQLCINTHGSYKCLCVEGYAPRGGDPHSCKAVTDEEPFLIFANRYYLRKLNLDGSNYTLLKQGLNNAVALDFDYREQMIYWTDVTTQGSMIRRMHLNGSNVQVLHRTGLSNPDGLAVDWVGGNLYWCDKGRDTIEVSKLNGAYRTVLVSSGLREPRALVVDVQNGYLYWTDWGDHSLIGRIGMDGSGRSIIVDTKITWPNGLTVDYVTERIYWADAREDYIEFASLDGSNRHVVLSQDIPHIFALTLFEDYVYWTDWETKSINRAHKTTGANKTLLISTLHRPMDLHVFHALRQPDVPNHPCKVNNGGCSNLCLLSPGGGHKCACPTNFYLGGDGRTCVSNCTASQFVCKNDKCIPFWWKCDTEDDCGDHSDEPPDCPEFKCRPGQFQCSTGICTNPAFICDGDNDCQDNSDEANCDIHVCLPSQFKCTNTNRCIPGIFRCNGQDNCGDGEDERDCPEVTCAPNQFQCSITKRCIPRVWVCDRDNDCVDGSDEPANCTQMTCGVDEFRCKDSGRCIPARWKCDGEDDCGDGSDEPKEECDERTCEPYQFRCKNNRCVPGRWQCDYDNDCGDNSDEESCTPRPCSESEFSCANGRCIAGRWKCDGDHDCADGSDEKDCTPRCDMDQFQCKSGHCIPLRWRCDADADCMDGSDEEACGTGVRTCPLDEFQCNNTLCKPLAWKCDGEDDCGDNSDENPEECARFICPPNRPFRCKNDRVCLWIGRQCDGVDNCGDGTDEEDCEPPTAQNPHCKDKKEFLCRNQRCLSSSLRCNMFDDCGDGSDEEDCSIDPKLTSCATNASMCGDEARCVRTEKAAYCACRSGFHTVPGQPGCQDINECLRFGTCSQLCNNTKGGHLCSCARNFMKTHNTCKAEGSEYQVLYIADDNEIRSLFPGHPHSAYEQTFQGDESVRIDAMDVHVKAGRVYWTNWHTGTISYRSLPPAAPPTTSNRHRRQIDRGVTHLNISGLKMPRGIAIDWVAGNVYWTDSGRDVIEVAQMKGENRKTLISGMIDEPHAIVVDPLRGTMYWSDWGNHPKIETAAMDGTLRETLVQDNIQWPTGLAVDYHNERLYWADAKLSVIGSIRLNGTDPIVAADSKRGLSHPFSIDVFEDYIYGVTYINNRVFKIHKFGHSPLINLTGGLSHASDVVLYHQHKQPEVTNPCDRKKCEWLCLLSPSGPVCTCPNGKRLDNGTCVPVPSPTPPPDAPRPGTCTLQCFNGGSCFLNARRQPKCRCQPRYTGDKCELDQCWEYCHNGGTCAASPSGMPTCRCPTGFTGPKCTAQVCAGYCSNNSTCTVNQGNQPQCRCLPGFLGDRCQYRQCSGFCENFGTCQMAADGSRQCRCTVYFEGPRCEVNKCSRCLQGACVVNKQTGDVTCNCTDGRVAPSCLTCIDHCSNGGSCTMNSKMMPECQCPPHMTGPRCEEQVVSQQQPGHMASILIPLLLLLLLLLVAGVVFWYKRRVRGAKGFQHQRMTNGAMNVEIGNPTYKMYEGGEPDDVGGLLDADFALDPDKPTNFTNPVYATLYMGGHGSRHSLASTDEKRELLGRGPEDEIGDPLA
UniProt P56817, residues 46-501: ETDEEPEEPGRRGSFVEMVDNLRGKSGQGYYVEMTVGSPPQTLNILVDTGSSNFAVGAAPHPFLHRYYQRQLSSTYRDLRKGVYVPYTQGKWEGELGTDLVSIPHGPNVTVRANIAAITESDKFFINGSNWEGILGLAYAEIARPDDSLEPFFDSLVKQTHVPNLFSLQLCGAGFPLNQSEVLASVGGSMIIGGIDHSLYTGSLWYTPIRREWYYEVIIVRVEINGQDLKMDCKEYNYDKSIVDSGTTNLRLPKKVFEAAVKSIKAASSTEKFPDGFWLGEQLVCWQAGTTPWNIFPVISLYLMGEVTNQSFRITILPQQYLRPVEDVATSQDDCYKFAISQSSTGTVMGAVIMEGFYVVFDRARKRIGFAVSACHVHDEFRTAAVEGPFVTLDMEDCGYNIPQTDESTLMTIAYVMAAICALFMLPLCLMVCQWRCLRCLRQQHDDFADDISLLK
UniProt P56818, residues 46-501: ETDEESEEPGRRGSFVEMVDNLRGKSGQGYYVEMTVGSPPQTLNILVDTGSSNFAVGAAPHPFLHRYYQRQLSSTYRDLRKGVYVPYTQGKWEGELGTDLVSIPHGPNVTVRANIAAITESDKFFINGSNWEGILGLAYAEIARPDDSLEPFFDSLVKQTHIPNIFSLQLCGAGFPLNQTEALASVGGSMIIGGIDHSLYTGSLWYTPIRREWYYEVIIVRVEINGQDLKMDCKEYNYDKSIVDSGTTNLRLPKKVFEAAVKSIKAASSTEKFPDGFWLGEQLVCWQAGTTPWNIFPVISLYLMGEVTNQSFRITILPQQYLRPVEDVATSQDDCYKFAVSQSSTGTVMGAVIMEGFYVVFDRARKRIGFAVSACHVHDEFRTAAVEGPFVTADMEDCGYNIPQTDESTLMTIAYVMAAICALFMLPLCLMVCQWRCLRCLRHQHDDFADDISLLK

Key:
[1] = target: endogenous LRP (light chain, approx. 85 kDa) of human brain tissue (human) (UniProt Q07954); assay: co-immunoprecipitation from human brain homogenate
[2] = target: endogenous LRP (light chain, approx. 85 kDa) of human brain tissue (human) (UniProt Q07954); assay: co-immunoprecipitation from human brain extracts, anti-BACE-CT pull-down and 11H4 blot (FIG. 6C)
[3] = target: endogenous LRP (light chain, approx. 85 kDa) of human brain tissue (human) (UniProt Q07954); assay: co-immunoprecipitation from human brain tissue, anti-BACE pull-down and blot with an antibody to the LRP light chain
[4] = target: endogenous LRP of mouse N2a cells and mouse primary cortical neurons (mouse) (UniProt Q91ZX7); assay: FLIM/FRET in untransfected N2a cells and mouse primary cortical neurons
[5] = target: endogenous BACE (human: human brain tissue; H4 cells) (human) (UniProt P56817); assay: co-immunoprecipitation, anti-myc pull-down and anti-BACE blot, H4 cells
[6] = target: endogenous BACE (human: human brain tissue; H4 cells) (human) (UniProt P56817); assay: co-immunoprecipitation, anti-myc pull-down and anti-BACE blot, H4 cells (FIG. 6B)

binding [1]: binds
binding [2]: binds
binding [3]: binds
Substance: endogenous BACE (human: human brain tissue; H4 cells) (from UniProt P56817 46-501) (enzyme)

binding [4]: binds
Substance: endogenous BACE of mouse N2a cells and mouse primary cortical neurons (from UniProt P56818 46-501) (enzyme)

binding [5]: binds
binding [6]: binds
Substance: mLRP1-myc (mini-receptor: N-terminal cluster of ligand binding repeats fused to the light chain of LRP, myc at the C-terminus) (from UniProt Q07954 20-191; Q07954 3863-4544)
